Primary screen of a compound library

Sequences of proteins named here, by UniProt entry; tags and fusion partners are left off.
UniProt E9BF75, entry or part of it: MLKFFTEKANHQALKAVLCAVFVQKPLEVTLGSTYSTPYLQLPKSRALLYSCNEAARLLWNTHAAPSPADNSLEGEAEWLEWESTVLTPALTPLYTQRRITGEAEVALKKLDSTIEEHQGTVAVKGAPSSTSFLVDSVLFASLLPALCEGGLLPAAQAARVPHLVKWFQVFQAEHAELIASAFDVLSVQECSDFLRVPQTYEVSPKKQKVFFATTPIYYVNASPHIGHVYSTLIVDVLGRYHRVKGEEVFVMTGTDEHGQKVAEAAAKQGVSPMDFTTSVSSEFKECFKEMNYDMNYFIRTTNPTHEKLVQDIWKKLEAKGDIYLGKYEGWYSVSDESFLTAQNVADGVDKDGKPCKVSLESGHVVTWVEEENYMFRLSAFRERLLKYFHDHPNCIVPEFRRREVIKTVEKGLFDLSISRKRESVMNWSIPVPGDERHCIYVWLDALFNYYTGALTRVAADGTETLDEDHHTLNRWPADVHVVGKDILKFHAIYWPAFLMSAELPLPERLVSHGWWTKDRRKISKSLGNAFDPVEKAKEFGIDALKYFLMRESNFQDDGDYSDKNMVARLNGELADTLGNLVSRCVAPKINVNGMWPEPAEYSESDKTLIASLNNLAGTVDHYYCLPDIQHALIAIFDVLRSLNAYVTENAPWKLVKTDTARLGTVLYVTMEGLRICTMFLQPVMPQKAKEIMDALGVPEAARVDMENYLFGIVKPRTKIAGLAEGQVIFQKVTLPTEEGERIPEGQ

LdMetRS: 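Methionyl-tRNA synthetase (putative), Leishmania donovani (UniProt E9BF75). Primary screen of methionyl-tRNA synthetase; the read-out is not stated. The test concentration is not given. Values are per cent inhibition. Size under these conditions: about 68,000 compounds, about 24 of them at 50% or above in at least one test.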
Mtb heat-shock: 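Assay on Mycobacterium tuberculosis, filed only as a heat shock assay from Cornell; the read-out is not stated. The concentration is filed as 10 mM, unlikely as a test dose, so the dose is not known. Direction is inferred from retests: higher values go with stronger inhibition. Of about 69,000 compounds tested this way, about 930 (1.4%) reached 50% or more in at least one test.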

All values are in %. The controls that fix the scale are not given in the record; negative values are as filed. This is an unselected part of the compounds tested. A dash means the value is not listed here; it may have been measured.

| SMILES | LdMetRS | Mtb heat-shock |
|---|---|---|
| `COCCc1noc(CNC2CCCN(c3cccnn3)C2)n1` (stereo unspecified) | 6.299 | -3.22 |
| `O=C(CN1CCCC(c2ccn[nH]2)C1)Nc1nncs1` (stereo unspecified) | 8.462 | 98.23 |
| `CCc1nc(COc2ccc(OCc3cnn(C)c3)cc2)no1` | 9.783 | 18.64 |
| `Cc1nn(CC(C)C)c(N(C)C)c1CNCc1cccc2c1OCO2` | 4.575 | 9.485 |
| `Cc1nc(N)c2ccc(C3CCCCN3)nc2n1.Cl` (stereo unspecified) | - | -14.69 |
| `O=C(c1cc2c([nH]c1=O)CCC2)N1CCCC1c1ccc(F)cc1` (stereo unspecified) | - | -10.38 |
| `O=S(=O)(NCCN1CCCCC1Cn1cncn1)c1ccccc1` (stereo unspecified) | 11.5 | 20.82 |
| `O=C(NCC1OCCc2cn(CC3CC3)nc21)c1ccsc1` (stereo unspecified) | 18.63 | 7.596 |
| `Cc1cccc(CN2C[C@@H]3CC[C@H](C2)N(Cc2c(C)noc2C)C3=O)n1` | 15.36 | - |
| `CCS(=O)(=O)CCCOc1nc(-c2ccccc2Cl)no1` | 20.96 | -2.797 |
| `Cc1nc(C)n(CC2CCCN2Cc2cn(-c3ccccc3)nn2)n1` (stereo unspecified) | 2.797 | -8.592 |
| `Cc1ccc(C(=O)N2C[C@@H]3CC[C@H](C2)N(CC2CCC2)C3)s1` | 10.42 | - |
| `CNc1cc(N2CCCC2CNCc2cccnc2C)ncn1` (stereo unspecified) | 14.99 | -40.86 |
| `CC(C)c1nsc(N2CCOCC2)n1` | 12.13 | -4.051 |
| `CCOc1cccc(C2CC(=O)NCc3nc(N4CCCC4)sc32)c1` (stereo unspecified) | 6.183 | -6.021 |
| `CC(C)N1CCC2(CCN(C(=O)c3cccnc3)CC2)C1.O=C(O)C(F)(F)F.O=C(O)C(F)(F)F` | - | -6.673 |
| `COCc1csc(NC(=O)NCc2ncccc2C)n1` | 8.179 | -3.542 |
| `O=C(NC1CCC1)c1n[nH]c2c1CNCC2` | 5 | -7.137 |
| `O=c1[nH]nc(CCCN2CCOCC2)n1-c1ccc(F)cc1F` | 5.483 | -12.65 |
| `COc1ccccc1C(=O)N1CCC(Oc2ccc(C#N)cn2)CC1` | 4.545 | 10.66 |
| `CC(C)c1cc(NC(=O)c2ccc(C(=O)NC(C)(C)C)cc2)[nH]n1` | 15.79 | -1.505 |
| `Cc1nc(CN(C)C2CCN(Cc3nc4ccccc4s3)C2)no1` (stereo unspecified) | 10.24 | -21.16 |
| `O=C(O)C1CN(c2cccc(Cl)c2)CCO1` (stereo unspecified) | 19.35 | -9.822 |
| `Cc1cccc(C(C(=O)N(C)Cc2ccon2)N(C)C)c1` (stereo unspecified) | 5.028 | 0.7654 |
| `CN(CCNC(=O)Nc1nccs1)Cc1ccc(F)cc1` | 19.2 | -37.03 |
| `CC(C)CN1C[C@H]2CCN(Cc3cccnc3)CC[C@H]2S1(=O)=O` | 17.17 | - |
| `COc1ccc(-c2cc(C3(O)CCOC(C)(C)C3)on2)cc1` (stereo unspecified) | 8.873 | 0.9777 |
| `CCN1CCC2(C1)CN(S(=O)(=O)c1cn(C)cn1)C2` | 14.08 | - |
| `Cc1cc(NC(=O)Cn2ncc(Br)c2C)no1` | 16.71 | 25.03 |
| `O=C(Cn1ccnc1)N1C[C@@H]2CC[C@H](Oc3ccccc3)[C@@H]2C1` | 13.36 | - |
| `CC(=O)Nc1ccc(CNCC(O)c2ccccc2)cc1` (stereo unspecified) | 9.019 | -26.35 |
| `CC(c1ccccc1)n1c(SCC(=O)O)nnc1-c1ccccc1Cl` (stereo unspecified) | -2.655 | -1.335 |
| `[H][C@@]12CS(=O)(=O)C[C@]1([H])N(Cc1cccnc1)CCN2CCOC` | - | -6.603 |
| `CC(C)N(Cc1ccccc1)C(=O)c1cc(C2CCCN2C)ccn1` (stereo unspecified) | 18.12 | -1.014 |
| `O=C(c1ccc2nncn2c1)N1CCCC(n2ccnc2)C1` (stereo unspecified) | 9.972 | -18.49 |
| `CNC(=O)[C@@H]1C[C@H]2CN(c3ncccn3)C[C@H]2N1C(C)C` | 7.266 | - |
| `CCC(CC)C(=O)N1CCC(c2nn(CCN)c3nccnc23)C1` (stereo unspecified) | 16.83 | -0.8551 |
| `[H][C@@]12CCN(Cc3cnn(C)c3)C[C@@]1([H])O[C@H](c1nc(C3CC3)cs1)C2` | - | -33.62 |
| `[H][C@]12CN(c3ncccn3)C[C@@]1([H])S(=O)(=O)CC[C@@H]2C(=O)NCC(C)C` | - | 33.04 |
| `COC(=O)CCCNC(=O)N1CCc2c([nH]c3ccc(Cl)cc23)C1` | 12.42 | 14.23 |
| `Cc1ccccc1C(C(=O)N(C)CCc1cnn(C)c1)N(C)C` (stereo unspecified) | 10.26 | 6.454 |
| `O=C(CN1CCCC1)N1CCCC1c1nc(O)cc(-c2ccccn2)n1` (stereo unspecified) | -2.825 | -17.16 |
| `O=C1CN(C(=O)C2CCCCC2)CC(O)CN1Cc1ccco1` (stereo unspecified) | 10.14 | 30.12 |
| `Cc1ccc(C2CSCCN2C(=O)c2ccccn2)cc1` (stereo unspecified) | 5.391 | -0.579 |
| `CC(=O)c1cccc(NC(=O)c2cnc(N3CCN(C)CC3)nc2C)c1` | 4.393 | 3.19 |
| `O=C(c1cnccn1)N1CCN2C[C@H](OCc3ccccc3)C[C@H]2C1` | 10.22 | - |
| `[H][C@@]12COC[C@]1(COCC1CC1)CN(S(=O)(=O)c1ccccc1)C2` | - | -10.14 |
| `Cc1cc(C)c(C(=O)N2CCOC(c3cccs3)C2)c(=O)[nH]1` (stereo unspecified) | 19.93 | 0.9764 |
| `COc1c(CNC2(c3noc(C)n3)CCC2)c(C)nn1C` | 8.871 | - |
| `CCCN1CCC(Cc2nn3c(C(C)C)nnc3s2)CC1` | -197 | -48.15 |
| `FC(F)(F)c1cc(NCCn2ncnn2)nc(-c2cccnc2)n1` | 9.218 | -0.03932 |
| `CC1=N[C@@]2(CC[C@@H]3CN(CC(C)C)C[C@@H]32)C(=O)N1C` | 8.711 | - |
| `c1ccc(C[C@H]2CN(C3CCOCC3)CC[C@H]2OCC2CC2)cc1` | 9.444 | - |
| `O=C1N[C@H]2OCCC[C@H]2[C@H](c2ccc(C(=O)O)cc2)N1` | 4.984 | - |
| `Cl.NCc1cc(-c2ccccc2)n2nccc2n1` | - | -2.564 |
| `O=C(O)C(F)(F)F.O=C(c1cnoc1)N1CCC[C@]2(C[C@@H](OCc3ccccn3)CO2)C1` | - | -9.77 |
| `Cc1nc(N2CCC(CC(=O)N3CCCC3)CC2)c2cnn(C)c2n1` | 14.1 | -13.85 |
| `N#Cc1cnc(N2CCC3(CC2)OCCO3)nc1N` | 11.39 | 15.62 |
| `O=C(c1ccc(F)cc1)N1CCC2(CCN(Cc3ccccn3)C2=O)C1` (stereo unspecified) | 22.09 | - |
| `COC(=O)N1CCC(NC(=O)N2CCCC2c2ccsc2)CC1` (stereo unspecified) | 9.42 | 7.408 |
| `COCCS(=O)(=O)Nc1ccc(-n2cncn2)c(F)c1` | 9.474 | 2.581 |
| `Cc1c(F)cccc1NC(=O)N(C(C)CS(C)(=O)=O)C1CC1` (stereo unspecified) | 8.101 | -14.06 |
| `CSc1cccc(CN2CCC(CCC(=O)NC3CC3)CC2)c1` | 5.226 | 2.849 |
| `[H][C@]12CC[C@]([H])(CN(C(=O)CCc3n[nH]c(C)c3C)C1)N(CCOC)C2` | - | 5.79 |
| `Cc1nc(N2CCN(C(=O)c3ccc(O)cc3)CC2)c2cnn(C)c2n1` | 6.536 | 4.743 |
| `CCn1ncc(S(=O)(=O)NC2(CN3CCOCC3)CCCCC2)c1C` | 10.97 | 10.79 |
| `CO[C@@H]1CCN(C(=O)c2cc(C)on2)C[C@@H]1Cc1ccccc1` | 8.964 | -17.77 |
| `Fc1cccc(CN2CCC3(CCCN3c3ncccn3)CC2)c1.O=C(O)C(F)(F)F` | - | 20.22 |
| `CN1CCN(C(=O)c2cc[nH]c(=O)c2)Cc2ccccc21` | 20.87 | -18.6 |
| `CCn1ncc2c1NC(=O)CC2c1cnc(-c2ccccn2)nc1` (stereo unspecified) | 6.183 | 14.27 |
| `CSc1ncccc1C(=O)NCCC(O)c1cccs1` (stereo unspecified) | 13.67 | -1.343 |
| `O=C([C@@H]1CCCO1)N1CCN(Cc2ccncc2)c2ncccc2C1` | 14.99 | 27.45 |
| `CCN1CC2(CC1=O)CN(Cc1ccsc1)CCN(C(=O)C(C)C)C2` (stereo unspecified) | 11.24 | - |
| `CCn1nc(C)c(CN(CCOC)C(=O)c2cnc(C)nc2O)c1C` | 11.69 | 10.47 |
| `OCCN(CCO)Cc1ccc(Br)c2cccnc12` | 11.05 | -8.619 |
| `Fc1ccc(F)c(CN2CCC(c3cnccn3)CC2)c1` | 7.349 | -4.596 |
| `Clc1ccc(CN2CCC3(CC2)CC(c2cccnc2)=NO3)cc1` | 6.857 | -22.8 |
| `CC(C)S(=O)(=O)CCN1CCc2c(ncn2C2CC2)C1` | 11.66 | 3.425 |
| `O=C1CCC2(CCCN(C(=O)c3ccccn3)CC2)N1` (stereo unspecified) | 12.78 | - |
| `Cc1nc(C)n(CC2CCCCN2c2ccnc(-c3ccccc3)n2)n1` (stereo unspecified) | -5.85 | -28.83 |
| `CN1C(=O)CCC12CCCN(C(=O)c1ccoc1)C2` (stereo unspecified) | 12.11 | -7.637 |
| `CC(NC(=O)C1(NC(=O)c2ccc3[nH]ncc3c2)CCCC1)C1CC1` (stereo unspecified) | 13.92 | 16.71 |
| `C=C(C)COCCNC(=O)Nc1cccc(Cn2nc(C)nc2C)c1` | 3.591 | -16.43 |
| `COCCNC(=O)c1ccc2c(=O)n3c(nc2c1)CCCC3` | 13.99 | 17.06 |

For reference, 9 entries once more:

SMILES,LdMetRS,Mtb heat-shock
CC(NC(=O)C1(NC(=O)c2ccc3[nH]ncc3c2)CCCC1)C1CC1 (stereo unspecified),13.92,16.71
CC(C)c1cc(NC(=O)c2ccc(C(=O)NC(C)(C)C)cc2)[nH]n1,15.79,-1.505
N#Cc1cnc(N2CCC3(CC2)OCCO3)nc1N,11.39,15.62
CCN1CC2(CC1=O)CN(Cc1ccsc1)CCN(C(=O)C(C)C)C2 (stereo unspecified),11.24,-
Cl.NCc1cc(-c2ccccc2)n2nccc2n1,-,-2.564
Cc1nn(CC(C)C)c(N(C)C)c1CNCc1cccc2c1OCO2,4.575,9.485
CCn1ncc2c1NC(=O)CC2c1cnc(-c2ccccn2)nc1 (stereo unspecified),6.183,14.27
CC(=O)c1cccc(NC(=O)c2cnc(N3CCN(C)CC3)nc2C)c1,4.393,3.19
[H][C@]12CN(c3ncccn3)C[C@@]1([H])S(=O)(=O)CC[C@@H]2C(=O)NCC(C)C,-,33.04

From ChEMBL document CHEMBL3988442, “University of Dundee, Small-Polar-MMV Screening Library” (2021).